# Data from the supplement of paper PMC10849652.
# Protein sequences, listed by entry. Tags and fused reporters are not part of them. Lines headed by an entry give the natural chain unless they say otherwise; changes in a name come on top.
# UniProt P11234: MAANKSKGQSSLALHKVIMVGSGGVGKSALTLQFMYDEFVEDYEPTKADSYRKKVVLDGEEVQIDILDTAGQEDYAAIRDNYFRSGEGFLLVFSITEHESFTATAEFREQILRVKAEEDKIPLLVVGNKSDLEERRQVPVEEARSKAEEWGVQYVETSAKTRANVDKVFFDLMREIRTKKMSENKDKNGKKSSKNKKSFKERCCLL
# UniProt P62491: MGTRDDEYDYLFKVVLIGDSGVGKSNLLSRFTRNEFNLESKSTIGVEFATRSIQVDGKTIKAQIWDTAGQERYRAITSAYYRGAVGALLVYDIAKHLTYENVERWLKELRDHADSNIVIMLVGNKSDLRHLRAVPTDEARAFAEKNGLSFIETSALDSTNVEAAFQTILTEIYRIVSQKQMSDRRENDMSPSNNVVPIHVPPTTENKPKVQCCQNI
# UniProt P53611: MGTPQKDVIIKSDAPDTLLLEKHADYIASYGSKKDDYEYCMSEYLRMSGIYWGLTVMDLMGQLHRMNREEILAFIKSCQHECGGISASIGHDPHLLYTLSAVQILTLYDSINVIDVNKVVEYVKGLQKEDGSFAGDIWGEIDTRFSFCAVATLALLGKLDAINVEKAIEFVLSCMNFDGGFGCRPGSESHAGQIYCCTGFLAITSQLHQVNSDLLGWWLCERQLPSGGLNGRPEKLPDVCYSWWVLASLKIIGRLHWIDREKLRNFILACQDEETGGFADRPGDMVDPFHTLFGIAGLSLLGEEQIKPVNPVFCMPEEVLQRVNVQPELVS
# UniProt Q96S59, whole entry, looked up: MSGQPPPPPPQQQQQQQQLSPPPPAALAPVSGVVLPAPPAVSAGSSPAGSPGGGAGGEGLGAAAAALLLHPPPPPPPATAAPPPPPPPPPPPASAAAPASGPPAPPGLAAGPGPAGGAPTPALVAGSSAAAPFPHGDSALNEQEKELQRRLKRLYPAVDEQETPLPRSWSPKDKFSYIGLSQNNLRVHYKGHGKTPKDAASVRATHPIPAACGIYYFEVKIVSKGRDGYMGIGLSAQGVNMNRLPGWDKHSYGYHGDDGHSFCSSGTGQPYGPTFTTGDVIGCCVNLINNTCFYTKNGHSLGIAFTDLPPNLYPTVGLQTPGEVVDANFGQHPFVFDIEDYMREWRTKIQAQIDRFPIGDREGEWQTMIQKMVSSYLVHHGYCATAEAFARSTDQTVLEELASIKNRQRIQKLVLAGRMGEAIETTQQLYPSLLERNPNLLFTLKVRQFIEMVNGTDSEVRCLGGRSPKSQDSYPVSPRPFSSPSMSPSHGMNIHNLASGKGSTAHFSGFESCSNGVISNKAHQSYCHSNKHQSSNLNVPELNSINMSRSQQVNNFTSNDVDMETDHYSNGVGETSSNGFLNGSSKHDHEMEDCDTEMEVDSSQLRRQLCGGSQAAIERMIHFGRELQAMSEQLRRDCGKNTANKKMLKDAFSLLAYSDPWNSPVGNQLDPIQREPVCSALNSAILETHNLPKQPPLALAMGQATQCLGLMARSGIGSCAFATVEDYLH
# UniProt P51151: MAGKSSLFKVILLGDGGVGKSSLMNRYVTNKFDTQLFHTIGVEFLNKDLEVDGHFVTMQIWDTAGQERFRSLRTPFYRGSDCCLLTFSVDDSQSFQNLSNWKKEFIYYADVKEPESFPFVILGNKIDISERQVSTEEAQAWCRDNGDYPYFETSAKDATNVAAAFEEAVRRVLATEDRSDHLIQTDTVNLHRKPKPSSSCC
# UniProt Q9UI14, whole entry, looked up: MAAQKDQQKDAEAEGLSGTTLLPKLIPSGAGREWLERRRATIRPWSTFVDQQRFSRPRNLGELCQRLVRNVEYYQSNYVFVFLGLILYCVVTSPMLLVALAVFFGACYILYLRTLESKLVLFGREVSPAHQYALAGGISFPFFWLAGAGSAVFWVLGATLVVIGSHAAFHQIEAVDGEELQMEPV
# UniProt Q9NS91, whole entry, looked up: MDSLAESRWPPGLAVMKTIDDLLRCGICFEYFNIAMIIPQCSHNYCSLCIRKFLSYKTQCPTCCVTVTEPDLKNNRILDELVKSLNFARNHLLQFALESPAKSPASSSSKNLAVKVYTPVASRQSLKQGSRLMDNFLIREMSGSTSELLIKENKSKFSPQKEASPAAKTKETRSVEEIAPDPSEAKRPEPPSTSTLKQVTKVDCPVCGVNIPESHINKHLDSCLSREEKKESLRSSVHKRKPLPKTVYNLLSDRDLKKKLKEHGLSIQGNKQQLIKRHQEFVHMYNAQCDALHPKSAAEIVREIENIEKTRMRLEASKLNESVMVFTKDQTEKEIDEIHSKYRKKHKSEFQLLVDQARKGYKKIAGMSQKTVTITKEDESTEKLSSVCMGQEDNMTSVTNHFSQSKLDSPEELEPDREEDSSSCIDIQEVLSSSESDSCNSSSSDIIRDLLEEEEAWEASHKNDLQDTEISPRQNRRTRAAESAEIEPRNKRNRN
# UniProt O60216: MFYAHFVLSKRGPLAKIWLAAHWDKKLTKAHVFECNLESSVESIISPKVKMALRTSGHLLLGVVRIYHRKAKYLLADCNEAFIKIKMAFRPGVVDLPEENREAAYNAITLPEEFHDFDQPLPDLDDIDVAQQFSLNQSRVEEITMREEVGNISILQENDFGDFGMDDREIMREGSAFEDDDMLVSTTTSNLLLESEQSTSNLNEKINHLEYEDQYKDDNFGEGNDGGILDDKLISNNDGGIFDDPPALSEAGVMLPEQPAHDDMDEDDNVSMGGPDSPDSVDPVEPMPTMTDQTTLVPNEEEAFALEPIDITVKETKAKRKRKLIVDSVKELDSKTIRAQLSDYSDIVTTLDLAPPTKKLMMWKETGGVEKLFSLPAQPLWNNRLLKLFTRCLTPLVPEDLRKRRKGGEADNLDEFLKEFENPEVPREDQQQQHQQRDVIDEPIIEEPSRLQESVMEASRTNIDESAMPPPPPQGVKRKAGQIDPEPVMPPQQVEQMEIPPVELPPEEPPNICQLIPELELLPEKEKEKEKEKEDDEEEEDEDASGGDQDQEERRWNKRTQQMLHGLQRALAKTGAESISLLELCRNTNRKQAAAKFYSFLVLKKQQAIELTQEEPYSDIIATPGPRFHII
# UniProt P61106, whole entry, looked up: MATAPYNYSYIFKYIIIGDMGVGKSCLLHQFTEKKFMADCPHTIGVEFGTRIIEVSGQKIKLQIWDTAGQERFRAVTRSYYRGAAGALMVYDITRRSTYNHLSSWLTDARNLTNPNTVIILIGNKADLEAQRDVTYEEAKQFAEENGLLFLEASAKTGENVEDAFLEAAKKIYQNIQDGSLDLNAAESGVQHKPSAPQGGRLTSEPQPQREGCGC
# UniProt O60671: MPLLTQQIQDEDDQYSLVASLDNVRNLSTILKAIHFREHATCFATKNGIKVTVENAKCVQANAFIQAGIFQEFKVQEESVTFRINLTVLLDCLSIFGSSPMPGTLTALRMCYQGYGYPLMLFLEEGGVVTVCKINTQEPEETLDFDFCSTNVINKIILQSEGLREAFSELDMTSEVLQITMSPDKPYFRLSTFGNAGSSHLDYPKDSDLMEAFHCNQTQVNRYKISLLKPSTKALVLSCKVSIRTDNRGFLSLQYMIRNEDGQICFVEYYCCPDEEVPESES
# UniProt P51148: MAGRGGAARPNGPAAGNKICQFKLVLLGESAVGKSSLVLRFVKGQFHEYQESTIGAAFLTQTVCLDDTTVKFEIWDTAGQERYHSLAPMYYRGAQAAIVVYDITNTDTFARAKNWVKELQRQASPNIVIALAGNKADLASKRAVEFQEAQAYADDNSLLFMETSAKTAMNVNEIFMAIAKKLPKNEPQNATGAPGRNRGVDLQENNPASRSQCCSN
# UniProt Q8TDY2, whole entry, looked up: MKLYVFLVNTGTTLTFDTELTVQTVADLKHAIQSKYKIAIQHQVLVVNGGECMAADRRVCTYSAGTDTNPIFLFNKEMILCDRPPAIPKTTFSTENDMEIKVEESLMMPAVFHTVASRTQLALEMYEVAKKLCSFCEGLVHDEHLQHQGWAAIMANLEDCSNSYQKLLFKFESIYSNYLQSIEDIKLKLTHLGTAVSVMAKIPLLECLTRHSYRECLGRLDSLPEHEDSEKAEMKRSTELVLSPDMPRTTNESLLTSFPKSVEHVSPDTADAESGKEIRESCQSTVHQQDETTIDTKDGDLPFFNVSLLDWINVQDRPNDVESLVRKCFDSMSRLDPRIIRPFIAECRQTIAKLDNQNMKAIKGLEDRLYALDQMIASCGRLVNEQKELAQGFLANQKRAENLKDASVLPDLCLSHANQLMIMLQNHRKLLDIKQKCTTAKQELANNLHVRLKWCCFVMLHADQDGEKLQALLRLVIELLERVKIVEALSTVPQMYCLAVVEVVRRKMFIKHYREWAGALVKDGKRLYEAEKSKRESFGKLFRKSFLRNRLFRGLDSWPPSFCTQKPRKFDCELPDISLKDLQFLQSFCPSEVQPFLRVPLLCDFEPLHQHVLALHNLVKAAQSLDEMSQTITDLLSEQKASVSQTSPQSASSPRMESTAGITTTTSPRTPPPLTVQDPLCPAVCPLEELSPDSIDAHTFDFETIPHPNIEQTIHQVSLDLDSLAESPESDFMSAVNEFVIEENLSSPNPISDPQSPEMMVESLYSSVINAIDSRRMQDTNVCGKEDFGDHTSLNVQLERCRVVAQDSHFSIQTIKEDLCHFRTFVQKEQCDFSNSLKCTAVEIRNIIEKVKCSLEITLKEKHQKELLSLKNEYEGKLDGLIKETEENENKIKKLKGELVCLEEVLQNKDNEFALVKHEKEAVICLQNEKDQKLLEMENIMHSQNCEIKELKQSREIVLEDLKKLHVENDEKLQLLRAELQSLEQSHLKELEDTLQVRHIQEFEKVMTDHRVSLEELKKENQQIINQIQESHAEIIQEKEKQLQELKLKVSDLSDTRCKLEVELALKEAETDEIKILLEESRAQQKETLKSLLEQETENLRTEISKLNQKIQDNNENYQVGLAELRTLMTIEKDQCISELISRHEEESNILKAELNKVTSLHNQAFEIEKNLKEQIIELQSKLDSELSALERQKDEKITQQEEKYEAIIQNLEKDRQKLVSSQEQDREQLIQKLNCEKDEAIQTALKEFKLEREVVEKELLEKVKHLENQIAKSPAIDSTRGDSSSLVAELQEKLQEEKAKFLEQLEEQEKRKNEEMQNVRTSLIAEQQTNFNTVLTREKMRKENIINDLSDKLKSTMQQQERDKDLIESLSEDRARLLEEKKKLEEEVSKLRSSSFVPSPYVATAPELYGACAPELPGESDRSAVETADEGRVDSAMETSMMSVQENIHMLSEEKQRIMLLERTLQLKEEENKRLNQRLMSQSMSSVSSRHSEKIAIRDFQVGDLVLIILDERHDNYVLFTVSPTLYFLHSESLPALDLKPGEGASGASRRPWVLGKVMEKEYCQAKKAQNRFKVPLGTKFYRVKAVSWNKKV
# UniProt P43487, whole entry, looked up: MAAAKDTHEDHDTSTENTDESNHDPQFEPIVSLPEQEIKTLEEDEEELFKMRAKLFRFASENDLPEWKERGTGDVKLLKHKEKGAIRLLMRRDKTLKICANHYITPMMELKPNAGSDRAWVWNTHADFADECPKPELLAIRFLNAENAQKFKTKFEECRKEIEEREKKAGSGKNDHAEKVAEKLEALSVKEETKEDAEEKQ
# UniProt Q9P2N5: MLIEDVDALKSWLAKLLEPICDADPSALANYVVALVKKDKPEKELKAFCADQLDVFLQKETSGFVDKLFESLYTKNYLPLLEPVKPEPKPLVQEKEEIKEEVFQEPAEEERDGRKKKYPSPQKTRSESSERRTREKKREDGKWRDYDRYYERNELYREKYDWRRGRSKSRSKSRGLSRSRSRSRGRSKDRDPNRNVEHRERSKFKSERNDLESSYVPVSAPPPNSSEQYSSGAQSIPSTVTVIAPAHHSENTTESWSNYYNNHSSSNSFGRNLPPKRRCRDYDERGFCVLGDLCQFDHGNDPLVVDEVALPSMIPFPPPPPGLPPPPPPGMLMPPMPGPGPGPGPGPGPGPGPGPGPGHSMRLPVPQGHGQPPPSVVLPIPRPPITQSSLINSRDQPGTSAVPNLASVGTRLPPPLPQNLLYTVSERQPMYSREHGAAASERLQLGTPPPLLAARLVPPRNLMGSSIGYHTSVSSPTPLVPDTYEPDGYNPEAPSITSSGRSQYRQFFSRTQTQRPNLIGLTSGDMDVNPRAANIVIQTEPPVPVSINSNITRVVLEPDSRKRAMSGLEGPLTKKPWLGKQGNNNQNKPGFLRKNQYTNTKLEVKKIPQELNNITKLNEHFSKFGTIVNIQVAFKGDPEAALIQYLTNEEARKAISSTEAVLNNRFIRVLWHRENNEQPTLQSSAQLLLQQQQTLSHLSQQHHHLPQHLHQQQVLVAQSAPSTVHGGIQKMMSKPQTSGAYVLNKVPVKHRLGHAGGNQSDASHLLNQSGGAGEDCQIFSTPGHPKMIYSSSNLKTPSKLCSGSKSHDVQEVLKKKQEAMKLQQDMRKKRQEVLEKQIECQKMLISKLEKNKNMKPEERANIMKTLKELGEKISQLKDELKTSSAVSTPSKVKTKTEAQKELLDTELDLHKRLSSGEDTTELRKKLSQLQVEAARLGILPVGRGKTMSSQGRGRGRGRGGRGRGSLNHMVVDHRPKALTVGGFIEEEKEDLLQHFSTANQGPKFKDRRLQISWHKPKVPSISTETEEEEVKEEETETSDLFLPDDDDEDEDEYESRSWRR
# Some of the results follow.
# Compound: CC1=C(C=C(C=C1)NC(=O)C2=CC(=CC=C2)C(C)(C)C#N)NC3=CC4=C(C=C3)N=CN(C4=O)C
# Assay: log2 fold change, soluble protein after heating vs DMSO (PISA); higher = thermal stabilisation; K562 cells, 10 uM, 30 min; active = over 0.2 and 3.5 SD of the protein, either way, in both replicates (recomputed)
# In short: (§1)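 K562 cells at 2×10^6 cells/mL were exposed to 10 μM compound for 30 min, then aliquots were heated for 3 min across 48°C-58°C, pooled, and extracted in PBS containing 0.5% NP-40 at 4°C. The supernatant after 21,000xg for 90 min was taken as soluble protein and measured by TMTpro 16plex LC-MS/MS with channel sums equalised. Thermal stability is reported relative to control samples, with values from duplicates. Fold changes are given on a log2 scale.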
row,Target,log2 fold change
1,RALB isoform 2 (UniProt P11234),inactive: -0.018
2,RACK1 (UniProt P63244),inactive: 0.015
3,RAB11A (UniProt P62491),inactive: -0.034
4,RAB3A (UniProt P20336),inactive: 0.066
5,RABGGTB (UniProt P53611),inactive: 0.068
6,RAP1A (UniProt P62834),inactive: 0.012
7,RAP1GDS1 isoform 5 (UniProt P52306),inactive: -0.04
8,RANBP9 (UniProt Q96S59),inactive: 0.013
9,RAB8B (UniProt Q92930),inactive: 0.055
10,RAB9A (UniProt P51151),inactive: 0.036
11,"RAPGEF2, A0A2R8YGD3",inactive: -0.014
12,RBM22 (UniProt Q9NW64),inactive: -0.049
13,RACK1 (UniProt D6RF23),inactive: 0
14,RABAC1 (UniProt Q9UI14),inactive: -0.041
15,RBM25 (UniProt P49756),inactive: -0.032
16,RAB2B (UniProt Q8WUD1),inactive: 0.031
17,RAB3IL1 (UniProt Q8TBN0),inactive: 0.005

row,Target,log2 fold change
1,RB1 (UniProt P06400),inactive: 0.016
2,RAB4B isoform 2 (UniProt P61018),inactive: -0.008
3,RAD18 (UniProt Q9NS91),inactive: -0.042
4,RBM3 (UniProt P98179),inactive: 0.021
5,RAD21 (UniProt O60216),inactive: -0.016
6,RAB14 (UniProt P61106),inactive: 0
7,RAD1 (UniProt O60671),inactive: 0.015
8,RAB6D (UniProt Q53S08),inactive: -0.035
9,RALGAPA1 isoform 6 (UniProt Q6GYQ0),inactive: -0.013
10,RAB5C isoform 2 (UniProt P51148),inactive: 0.069
11,RAN (UniProt P62826),inactive: -0.017
12,RBBP4 (UniProt Q09028),inactive: -0.032
13,RB1CC1 (UniProt Q8TDY2),inactive: -0.061
14,RANBP1 (UniProt P43487),inactive: 0.009
15,RAB31 (UniProt Q13636),inactive: -0.024
16,RBM27 (UniProt Q9P2N5),inactive: 0.031

# Compound: CC1=C(C=C(C=C1)NC(=O)C2=CC(=CC=C2)N(C)C)NC(=O)C3=CC=C(C=C3)O
# Assay: as above
# In short: as §1
row,Target,log2 fold change
1,RALB isoform 2 (UniProt P11234),inactive: 0.044
2,RACK1 (UniProt P63244),inactive: 0.015
3,RAB11A (UniProt P62491),inactive: 0.017
4,RAB3A (UniProt P20336),inactive: -0.038
5,RABGGTB (UniProt P53611),inactive: 0.019
6,RAP1A (UniProt P62834),inactive: -0.05
7,RAP1GDS1 isoform 5 (UniProt P52306),inactive: -0.035
8,RANBP9 (UniProt Q96S59),inactive: -0.04
9,RAB8B (UniProt Q92930),inactive: 0.013
10,RAB9A (UniProt P51151),inactive: 0.033
11,"RAPGEF2, A0A2R8YGD3",inactive: 0.085
12,RBM22 (UniProt Q9NW64),inactive: 0.031
13,RACK1 (UniProt D6RF23),inactive: 0
14,RABAC1 (UniProt Q9UI14),inactive: 0.071
15,RBM25 (UniProt P49756),inactive: 0.017
16,RAB2B (UniProt Q8WUD1),inactive: 0.004
17,RAB3IL1 (UniProt Q8TBN0),inactive: 0.002

row,Target,log2 fold change
1,RB1 (UniProt P06400),inactive: -0.011
2,RAB4B isoform 2 (UniProt P61018),inactive: 0.032
3,RAD18 (UniProt Q9NS91),inactive: -0.131
4,RBM3 (UniProt P98179),inactive: -0.107
5,RAD21 (UniProt O60216),inactive: 0.02
6,RAB14 (UniProt P61106),inactive: 0.014
7,RAD1 (UniProt O60671),inactive: -0.005
8,RAB6D (UniProt Q53S08),inactive: 0.007
9,RALGAPA1 isoform 6 (UniProt Q6GYQ0),inactive: 0.171
10,RAB5C isoform 2 (UniProt P51148),inactive: -0.02
11,RAN (UniProt P62826),inactive: 0.004
12,RBBP4 (UniProt Q09028),inactive: 0.007
13,RB1CC1 (UniProt Q8TDY2),inactive: -0.005
14,RANBP1 (UniProt P43487),inactive: 0.022
15,RAB31 (UniProt Q13636),inactive: -0.021
16,RBM27 (UniProt Q9P2N5),inactive: -0.008

# Compound: CC1=CC=C(C=C1)SC2=C3C=C(SC3=CN=C2)C(=O)N
# Assay: as above
# In short: as §1
row,Target,log2 fold change
1,RALB isoform 2 (UniProt P11234),inactive: 0.026
2,RACK1 (UniProt P63244),inactive: 0.011
3,RAB11A (UniProt P62491),inactive: -0.068
4,RAB3A (UniProt P20336),inactive: 0.092
5,RABGGTB (UniProt P53611),inactive: -0.004
6,RAP1A (UniProt P62834),inactive: 0.003
7,RAP1GDS1 isoform 5 (UniProt P52306),inactive: 0.073
8,RANBP9 (UniProt Q96S59),inactive: -0.021
9,RAB8B (UniProt Q92930),inactive: 0.073
10,RAB9A (UniProt P51151),inactive: 0.017
11,"RAPGEF2, A0A2R8YGD3",inactive: 0.019
12,RBM22 (UniProt Q9NW64),inactive: -0.056
13,RACK1 (UniProt D6RF23),inactive: -0.241
14,RABAC1 (UniProt Q9UI14),inactive: -0.022
15,RBM25 (UniProt P49756),inactive: -0.007
16,RAB2B (UniProt Q8WUD1),inactive: 0.022
17,RAB3IL1 (UniProt Q8TBN0),inactive: 0.008

row,Target,log2 fold change
1,RB1 (UniProt P06400),inactive: 0.034
2,RAB4B isoform 2 (UniProt P61018),inactive: 0.02
3,RAD18 (UniProt Q9NS91),inactive: 0.049
4,RBM3 (UniProt P98179),inactive: -0.055
5,RAD21 (UniProt O60216),inactive: -0.02
6,RAB14 (UniProt P61106),inactive: 0.024
7,RAD1 (UniProt O60671),inactive: 0.01
8,RAB6D (UniProt Q53S08),inactive: 0.047
9,RALGAPA1 isoform 6 (UniProt Q6GYQ0),inactive: -0.058
10,RAB5C isoform 2 (UniProt P51148),inactive: 0.02
11,RAN (UniProt P62826),inactive: -0.042
12,RBBP4 (UniProt Q09028),inactive: 0.005
13,RB1CC1 (UniProt Q8TDY2),inactive: 0.025
14,RANBP1 (UniProt P43487),inactive: 0.017
15,RAB31 (UniProt Q13636),inactive: -0.002
16,RBM27 (UniProt Q9P2N5),inactive: 0.01
